Experimental data published in PubChem BioAssay AID651660 (Broad Institute, 2012).
Values joined by “and” are separate entries in the source; they are usually repeats but may differ in a detail not shown here. Equal values may be shown once. Screen size: about 1,900 compounds; about 15 (0.8%) were called active.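 How the source made its calls: active means every replicate shows at least 50% inhibition; inconclusive means mean inhibition at least 50% but some replicate below; inactive means the rest.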 The list shows a part of the results. Residues, ends and D or L forms follow the SMILES beside them. *: point of attachment. Boc = CC(C)(C)OC(=O)*

Protein sequences, listed by entry. Tags and fused reporters are not part of them. Lines headed by an entry give the natural chain unless they say otherwise; changes in a name come on top.
UniProt P43351: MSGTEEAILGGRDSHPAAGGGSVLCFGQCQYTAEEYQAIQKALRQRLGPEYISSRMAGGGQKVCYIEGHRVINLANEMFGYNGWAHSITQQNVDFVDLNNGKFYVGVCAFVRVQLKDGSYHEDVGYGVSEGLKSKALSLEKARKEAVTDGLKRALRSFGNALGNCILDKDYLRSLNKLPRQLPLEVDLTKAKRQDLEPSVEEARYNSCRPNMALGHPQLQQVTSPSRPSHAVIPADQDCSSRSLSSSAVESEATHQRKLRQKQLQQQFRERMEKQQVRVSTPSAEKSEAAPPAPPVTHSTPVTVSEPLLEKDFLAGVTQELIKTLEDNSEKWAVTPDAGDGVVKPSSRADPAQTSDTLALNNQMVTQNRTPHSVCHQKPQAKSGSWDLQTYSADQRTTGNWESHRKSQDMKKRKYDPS

biological target: DNA repair protein RAD52 homolog (Homo sapiens) (UniProt P43351); test: inhibition of RAD52-mediated strand annealing – biochemical, FRET, single point, primary screen (AID 651660); conditions: Recombinant RAD52 ssDNA annealing, FRET fluorescence, 30 min; at 18.7 µM; hits give high values;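 further: 0% = median of neutral control wells and 100% = median of positive control wells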

**Q.** For `Cc1ccc(C(=O)Nc2ccccc2C(=O)NC(C(=O)O)C(C)C)cc1` (stereo not drawn), which inhibition is on record?
**A.** The inhibition was inactive: -13.2%.

**Q.** With `O=C(CCCn1c(=O)oc2ccccc21)N1CCN(c2ccc(F)cc2)CC1` as the molecule, how does the inhibition read?
**A.** The inhibition was inactive: -3.01%.

**Q.** For `CCn1c(SCC(=O)c2ccccc2)nc2ccccc2c1=O`, which inhibition is on record?
**A.** Its inhibition is inactive: 3.94%.

**Q.** With `COc1ccc(C(=O)C2CCCCC2=O)cc1` (stereo not drawn) as the molecule, how does the inhibition read?
**A.** Its inhibition is inactive: -11.5%.

**Q.** Which inhibition does the source give for `Cc1ccc(-n2cc(CNCCN3CCOC3=O)c(-c3ccc(F)cc3)n2)cc1` here?
**A.** The inhibition was inactive: 7.33%.

**Q.** Which inhibition does the source give for `Nc1ccc(S(N)(=O)=O)cc1N` here?
**A.** The inhibition was inactive: -488%.

**Q.** Which inhibition does the source give for `COc1ccc(C2C(=O)c3ccccc3C2=O)cc1` here?
**A.** Its inhibition is inactive: -10.6%.

**Q.** For `Cc1cccc(C)c1NC(=O)C1CCCCN1C` (stereo not drawn), which inhibition is on record?
**A.** Its inhibition is inactive: -1.92%.

**Q.** How did the inhibition turn out when `CCOC(=O)c1c(C)oc2cc(Br)c(OC(C)C(=O)OCC)cc12` (stereo not drawn) was run?
**A.** The inhibition was inactive: 7%.

**Q.** For `CN1C(C(=O)Nc2ccccn2)=C(O)c2sccc2S1(=O)=O`, which inhibition is on record?
**A.** The inhibition was inactive: -3.88%.

**Q.** How did the inhibition turn out when `Cc1ncc([N+](=O)[O-])n1CC(O)CCl` (stereo not drawn) was run?
**A.** Its inhibition is inactive: 0.153%.

**Q.** For `CCOC(=O)C1=C(N)Oc2c(oc(CO)cc2=O)C1c1ccc(F)c(F)c1` (stereo not drawn), which inhibition is on record?
**A.** Its inhibition is inactive: -14.2%.

**Q.** How did the inhibition turn out when `C[C@]12CC[C@H]3C(=CCc4cc(O)ccc43)[C@@H]1CCC2=O` was run?
**A.** The inhibition was inactive: 5.47%.

**Q.** `CCc1ccc2oc(=O)cc(CN3CCC(C)CC3)c2c1` was tested. Which inhibition did it give?
**A.** The inhibition was inactive: -8.34%.

**Q.** `CCOC(=O)C1C2C=CC3(CN(c4ccc(Cl)c(F)c4)C(=O)C13)O2` (stereo not drawn) was tested. Which inhibition did it give?
**A.** Its inhibition is inactive: -3.23%.

**Q.** With `COc1ccc(CNCCC(c2ccc(F)cc2)c2ccc(OC(C)C)cc2)cc1OC` (stereo not drawn) as the molecule, how does the inhibition read?
**A.** The inhibition was active: 57.6%.

**Q.** How did the inhibition turn out when `CC(C)COCC1CC2(CC(C)(c3csc(N)n3)OC2=O)C(=O)O1` (stereo not drawn) was run?
**A.** The inhibition was inactive: -11.3%.

**Q.** With `COc1c(C)cc(C(=O)C2CCCN(Cc3ccc(Oc4ncccn4)cc3)C2)cc1C` (stereo not drawn) as the molecule, how does the inhibition read?
**A.** Its inhibition is inactive: -5.97%.

**Q.** `Cn1c(=O)c2[nH]cnc2n(C)c1=O` was tested. Which inhibition did it give?
**A.** Its inhibition is inactive: -3.99%.

**Q.** With `C#C[C@]1(O)CC[C@H]2[C@@H]3CCc4cc(OC5CCCC5)ccc4[C@H]3CC[C@@]21C` as the molecule, how does the inhibition read?
**A.** The inhibition was inactive: -10.8%.

**Q.** For `Cc1ccnc2c1NC(=O)c1cccnc1N2C1CC1`, which inhibition is on record?
**A.** Its inhibition is inactive: 48.7%.

**Q.** For `CN(C)CCC=C1c2ccccc2CCc2ccccc21`, which inhibition is on record?
**A.** The inhibition was inactive: -4.65%.

**Q.** `COc1ccc(-c2c[n+](CC(=O)OC3CC(C)CCC3C(C)C)c3n2CCC3)cc1` (stereo not drawn) was tested. Which inhibition did it give?
**A.** Its inhibition is inactive: 33.7%.

**Q.** With `O=C(COc1ccccc1)N1CCN(c2ccccc2)CC1` as the molecule, how does the inhibition read?
**A.** The inhibition was inactive: -4.76%.

**Q.** `COc1cc(C(=O)OCCn2c(=O)c3c(ncn3CCN(C)C)n(C)c2=O)cc(OC)c1OC` was tested. Which inhibition did it give?
**A.** Its inhibition is inactive: -2.31%.

**Q.** With `COc1ccc(CN2CCC(=O)NC2=O)cc1` as the molecule, how does the inhibition read?
**A.** The inhibition was inactive: 5.32%.

**Q.** Which inhibition does the source give for `COC(=O)c1cc(OC)c(OC)cc1NC(=O)Nc1ccc(OC)cc1OC` here?
**A.** The inhibition was inactive: -2.68%.

**Q.** How did the inhibition turn out when `COCCn1c(SCCOc2ccccc2)nc2ccccc2c1=O` was run?
**A.** Its inhibition is inactive: 1.61%.

**Q.** For `CC(C)(C)OC(=O)N1CCCC1C(=O)NC(Cc1ccccc1)C(=O)O` (stereo not drawn) (Boc-Pro-Phe-OH; configuration not given here), which inhibition is on record?
**A.** Its inhibition is inactive: 0.173%.

**Q.** Which inhibition does the source give for `CC[N+]1(C)CC2CCC(C)(C1)C2(C)C` (stereo not drawn) here?
**A.** Its inhibition is inactive: -10.8%.

**Q.** For `CC(CCc1ccccc1)NC(=O)/C=C/c1ccccc1` (stereo not drawn), which inhibition is on record?
**A.** Its inhibition is inactive: -0.182%.

**Q.** With `COc1cc(Cc2cnc(N)nc2N)cc(OC)c1OC` as the molecule, how does the inhibition read?
**A.** The inhibition was inactive: -5.03% and inactive: 1.99%.

**Q.** How did the inhibition turn out when `COc1ccc(CCN2CNc3c(c(=O)n(C)c(=O)n3C)C2)cc1OC` was run?
**A.** The inhibition was inactive: -4.7%.

**Q.** With `COc1ccc(CN(CCC(c2ccccc2)c2ccc(OC(C)C)cc2)C(=O)CCl)cc1OC` (stereo not drawn) as the molecule, how does the inhibition read?
**A.** Its inhibition is inactive: 28.8%.

**Q.** How did the inhibition turn out when `CC(C)OC(=O)C1C(=O)CC(C)(O)C(C(=O)OC(C)C)C1c1cccc(O)c1` (stereo not drawn) was run?
**A.** Its inhibition is inactive: 1.32%.

**Q.** With `CO[C@@]1(NC(=O)Cc2cccs2)C(=O)N2C(C(=O)O)=C(COC(N)=O)CS[C@@H]21` as the molecule, how does the inhibition read?
**A.** Its inhibition is inactive: -23.3%.

**Q.** How did the inhibition turn out when `O=C(c1cc2cc(Br)ccc2o1)N1CCCCC1` was run?
**A.** Its inhibition is inactive: 1.69%.

**Q.** `O=C(O)CCSCCC(=O)O` was tested. Which inhibition did it give?
**A.** The inhibition was inactive: -7.85%.

**Q.** For `CC(C)Oc1ccc(C(CC(=O)O)c2ccc(F)cc2)cc1` (stereo not drawn), which inhibition is on record?
**A.** Its inhibition is inactive: -7.3%.

**Q.** `O=C(c1ccco1)N(CCC(c1ccccc1)c1ccco1)Cc1ccco1` (stereo not drawn) was tested. Which inhibition did it give?
**A.** Its inhibition is inactive: -46.1%.

**Q.** How did the inhibition turn out when `COc1ccc2oc(=O)c(C(=O)N3CCN(c4ccccc4)CC3)cc2c1` was run?
**A.** The inhibition was inactive: -1.5%.

**Q.** For `CCOc1ccc2ccccc2c1CNc1nnnn1C`, which inhibition is on record?
**A.** The inhibition was inactive: -2.89%.

**Q.** Which inhibition does the source give for `Cc1ccc2ncnc(NCCCCCC(=O)O)c2c1` here?
**A.** The inhibition was inactive: 3.28%.

**Q.** `Cc1ccsc1C1NC(=O)c2ccccc2N1` (stereo not drawn) was tested. Which inhibition did it give?
**A.** Its inhibition is inactive: 1.49%.

**Q.** With `COc1ccc(OC(C)C(=O)Nc2ccc([N+](=O)[O-])cc2)cc1` (stereo not drawn) as the molecule, how does the inhibition read?
**A.** Its inhibition is inactive: -3.9%.

**Q.** Which inhibition does the source give for `O=C(NCCCCCc1nc2ccccc2[nH]1)c1ccccc1Cl` here?
**A.** Its inhibition is inactive: -0.634%.

**Q.** `O=C(Nc1cccc(-c2nc3ncccc3o2)c1)c1ccccc1` was tested. Which inhibition did it give?
**A.** The inhibition was inactive: 2.68%.

**Q.** `CCCCOC(=O)c1ccc(N)cc1` was tested. Which inhibition did it give?
**A.** The inhibition was inactive: -1.79%.

**Q.** How did the inhibition turn out when `O=C(CS(=O)(=O)Cc1ccccc1)NCc1ccc2c(c1)OCO2` was run?
**A.** The inhibition was inactive: 1.08%.

**Q.** For `Cc1ccc(-n2ncc3c(Nc4cccc(C(=O)O)c4)ncnc32)cc1`, which inhibition is on record?
**A.** The inhibition was inactive: -4.75%.

**Q.** Which inhibition does the source give for `NCCOc1ccccc1OCCN` here?
**A.** The inhibition was inactive: 2.09%.

**Q.** How did the inhibition turn out when `Cc1ccc2[nH]c3c(c2c1)CN(C(=O)CN1CCSCC1)CC3` was run?
**A.** Its inhibition is inactive: -1.24%.

**Q.** For `COc1cc(OC)cc(C(C)=O)c1`, which inhibition is on record?
**A.** Its inhibition is inactive: -3.64%.

**Q.** `Cc1ccc(/C=N/Nc2nc(C(C)(C)C)cs2)o1` was tested. Which inhibition did it give?
**A.** Its inhibition is inactive: -5.64%.

**Q.** `CC(=O)c1cccc2c(O)c(C3=Nc4ccccc4C3=O)[nH]c12` was tested. Which inhibition did it give?
**A.** Its inhibition is inactive: -6.23%.

**Q.** For `CC(CCCC(C)(C)O)NC(=O)c1ccc(OC2CCN(C(=O)C3CC3)CC2)cc1` (stereo not drawn), which inhibition is on record?
**A.** Its inhibition is inactive: 2.1%.

**Q.** With `CC(C)OC(=O)C1C2C=CC3(CN(CC4CCCO4)C(=O)C13)O2` (stereo not drawn) as the molecule, how does the inhibition read?
**A.** The inhibition was inactive: -7.36%.

**Q.** With `COc1cc2c(cc1OC)C(c1ccc(-c3cc(Cl)ccc3Cl)o1)=NCC2` as the molecule, how does the inhibition read?
**A.** The inhibition was inactive: -29.8%.

**Q.** Which inhibition does the source give for `CC(C)COCC(CN(Cc1ccccc1)c1ccccc1)N1CCCC1` (stereo not drawn) here?
**A.** The inhibition was inactive: 20.9%.

**Q.** `Oc1ccc(Cl)cc1Cc1cc(Cl)ccc1O` was tested. Which inhibition did it give?
**A.** The inhibition was inactive: 2.67%.

**Q.** With `COc1ccc(OC(C)C(=O)Nc2ccccc2F)cc1` (stereo not drawn) as the molecule, how does the inhibition read?
**A.** The inhibition was inactive: -11.2%.

**Q.** Which inhibition does the source give for `O=C(Nc1nc2ccccc2s1)c1ccc(F)cc1` here?
**A.** Its inhibition is inactive: 4.49%.

**Q.** For `N#C/C(C(N)=O)=c1/ccc2c(c1)N1C3=C(CCCC3)CC3CCCCC31N=2` (stereo not drawn), which inhibition is on record?
**A.** Its inhibition is inactive: -3.13%.
